Record: PubChem BioAssay AID504791 (Drosophila RNAi Screening Center, 2011)
The screen tested about 23,000 reagents; below is an unselected part of those that have a named target and a result. Over the whole deposit, 199 (0.86%) are marked active. 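Plate-scaled ratios behind the calls are not deposited; printed light signals are raw; many rows marked increased or decreased are still called inactive.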 The numbers tell different reagents against one gene apart. Names joined by + are all predicted targets of the reagent. No sequences are given here.

Purpose: 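Genes whose knock-down strengthens or weakens small-RNA reporter silencing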 (primary screen)
Cells: Drosophila S2-derived reporter cells
Knock-down reagent: long dsRNA against Drosophila genes, about 150-250 ng dsRNA per well (siRNA assay); about 80-120 ng (miRNA assay)
Time to read-out: about 5 days (siRNA assay); about 4 days (miRNA assay)
Challenge: copper sulfate induction of reporters: 25 µM (siRNA assay); 200 mM stated (miRNA assay), 1-2 days before reading
Measurement: 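Dual luciferase assay: Renilla to firefly signal ratio in each well, scaled to the mean ratio of its plate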
Direction: siRNA reporter hit score: higher = 3 marks a strong hit with raised ratio; -3 a strong hit with lowered ratio
Active means: 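a well was a first-pass pick when its plate-scaled ratio rose above 1.5 (siRNA assay) or 1.6 (miRNA assay), or dropped below 0.6; a gene counted only if two separate dsRNAs agreed on retest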

target gene	reagent	siRNA reporter hit score	stable siRNA reporter change	miRNA reporter change	stable assay Renilla, run 1 (luminescence)	stable assay firefly, run 1 (luminescence)	activity call
Sid	1				6680	3.27e5	inactive
CG3473	1				7600	4.19e5	inactive
CG5828	1				10209	5.59e5	inactive
Obp19b	1				5776	5.15e5	inactive
CG17712	1				11238	4.34e5	inactive
brk	1				4627	2.25e5	inactive
brk	2				4839	3.10e5	inactive
tral	1				7048	2.48e5	inactive
Ets98B	1				5243	4.17e5	inactive
CG5532	1				5171	6.11e5	inactive
prd	1				15072	9.98e5	inactive
Mnn1	1				6983	4.02e5	inactive
RpL3	1				6907	3.29e5	inactive
RhoGAP92B	1				8606	3.34e5	inactive
RhoGAP92B	2	3			7263	3.10e5	inactive
CG12099	1				6758	3.73e5	inactive
opm	1				6947	4.07e5	inactive
opm	2				9414	6.04e5	inactive
CG14325	1				7917	4.15e5	inactive
CG9593	1				6620	3.97e5	inactive
CG14185	1				7808	3.37e5	inactive
mira	1				7026	2.82e5	inactive

8 successive records already listed, quoted:
target gene	reagent	siRNA reporter hit score	stable siRNA reporter change	miRNA reporter change	stable assay Renilla, run 1 (luminescence)	stable assay firefly, run 1 (luminescence)	activity call
RhoGAP92B	1				8606	3.34e5	inactive
RhoGAP92B	2	3			7263	3.10e5	inactive
CG12099	1				6758	3.73e5	inactive
opm	1				6947	4.07e5	inactive
opm	2				9414	6.04e5	inactive
CG14325	1				7917	4.15e5	inactive
CG9593	1				6620	3.97e5	inactive
CG14185	1				7808	3.37e5	inactive

Continued.
target gene	reagent	siRNA reporter hit score	stable siRNA reporter change	miRNA reporter change	stable assay Renilla, run 1 (luminescence)	stable assay firefly, run 1 (luminescence)	activity call
CG5906	1				6350	3.98e5	inactive
Tina-1	1				79628	8.44e5	inactive
nAChRalpha7	1				5915	3.78e5	inactive
nAChRalpha7	2				5204	3.00e5	inactive
Ten-a	1				5279	4.15e5	inactive
Ten-a	2				4923	2.93e5	inactive
Ten-a	3				4451	3.56e5	inactive
Ten-a	4				5070	4.09e5	inactive
Ten-a	5				4707	4.05e5	inactive
Ten-a	6				5278	4.34e5	inactive
Ten-a	7				4452	3.69e5	inactive
Ten-a	8			reporter ratio raised past the hit cutoff	11600	5.33e5	inactive
Ten-a	9				5248	3.96e5	inactive
CG30279 (retired record)	1				5907	5.84e5	inactive
orb2	1				8866	4.59e5	inactive
orb2	2				5668	3.77e5	inactive
orb2	3		reporter ratio raised past the hit cutoff		46627	4.88e5	inactive
CAH15	1				6766	4.55e5	inactive
CG11158	1				6290	5.68e5	inactive
Ctr1B + Poxm	1				7386	4.00e5	inactive
CCHa2-R	1				5359	4.78e5	inactive
CCHa2-R	2				6635	3.66e5	inactive
CCHa2-R	3				6084	3.59e5	inactive
CG3592	1				6654	3.64e5	inactive
wal	1				8671	4.17e5	inactive
CG15464 (retired record)	1				4560	4.58e5	inactive
CG15464 (retired record)	2				9800	6.34e5	inactive
CG15484	1				4502	3.68e5	inactive
CG15484	2				5303	3.90e5	inactive
TrxT	1		reporter ratio raised past the hit cutoff		6418	1.87e5	inactive
TrxT	2				4551	3.07e5	inactive
Ahcy	1				9195	4.07e5	inactive
Yip1d1	1				6846	4.30e5	inactive
CG11322	1				8099	4.51e5	inactive
CG31313	1				4991	4.53e5	inactive
